Measurements from the supplement of paper PMC4604168 (melanoma cell lines).
Some of the results follow. Single values are uncertain, as repeats are few or missing.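 Cells were imaged in 1,536-well plates, and nuclei stained with an antibody against cleaved PARP were counted against all DNA-stained nuclei to give the apoptosis fraction. Screening doses were chosen to leave most cells alive, and resting and induced cleaved-PARP levels differ strongly between cell lines.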

The molecules below were run on SkMel30 (assay: cleaved PARP positive nuclei fraction relative to DMSO control; melanoma cells; higher = more apoptosis). Details: library dose: low library concentration; 72 h.

SMILES	cleaved PARP positive nuclei fraction
C[C@@H](N)c1ccc(C(=O)Nc2ccnc3[nH]ccc23)cc1 + Cc1cc([N+](=O)[O-])ccc1NS(=O)(=O)c1cc(Cl)ccc1Cl [FH535] (first compound 0.4 µM, partner dose 1 µM)	110%
CS(=O)(=O)c1ccc(C(=O)Nc2ccc(Cl)c(-c3ccccn3)c2)c(Cl)c1 [vismodegib] + O=S(=O)(c1ccccc1)N(CC(F)(F)F)c1ccc(C(O)(C(F)(F)F)C(F)(F)F)cc1 [T0901317] (first compound 1 µM, partner dose 1.4 µM)	16.7%
CCN(CC)CCNC(=O)c1c(C)[nH]c(/C=C2\C(=O)Nc3ccc(F)cc32)c1C [sunitinib] + COc1cc(N2CCC(N3CCN(C)CC3)CC2)ccc1Nc1ncc(Cl)c(Nc2ccccc2S(=O)(=O)C(C)C)n1 [NVP-TAE684] (first compound 0.4 µM, partner dose 0.08 µM)	19.6%
CC1(C)CCC(c2ccc(Cl)cc2)=C(CN2CCN(c3ccc(C(=O)NS(=O)(=O)c4ccc(N[C@H](CCN5CCOCC5)CSc5ccccc5)c(S(=O)(=O)C(F)(F)F)c4)cc3)CC2)C1 + CC(C)CCN1c2nc(Nc3cc(F)c(O)c(F)c3)ncc2N(C)C(=O)C1C [BID1870] (first compound 0.4 µM, partner dose 0.2 µM)	162%
C[C@@H](N)c1ccc(C(=O)Nc2ccnc3[nH]ccc23)cc1 + CN(NC(=O)CC(=O)NN(C)C(=S)c1ccccc1)C(=S)c1ccccc1 [STA4783] (first compound 0.4 µM, partner dose 0.006 µM)	34.6%
NC1(c2ccc(-c3nc4ccn5c(=O)[nH]nc5c4cc3-c3ccccc3)cc2)CCC1 + COc1cc(N2CCC(N3CCN(C)CC3)CC2)ccc1Nc1ncc(Cl)c(Nc2ccccc2S(=O)(=O)C(C)C)n1 [NVP-TAE684] (first compound 0.4 µM, partner dose 0.08 µM)	126%
NC(=O)c1ccc(N(C(N)=O)c2c(F)cccc2F)nc1-c1ccc(F)cc1F + CCCCCCCCCCCC1=C(O)C(=O)C=C(O)C1=O [Embelin] (first compound 0.4 µM, partner dose 1.2 µM)	188%
CS(=O)(=O)c1ccc(C(=O)Nc2ccc(Cl)c(-c3ccccn3)c2)c(Cl)c1 [vismodegib] + NCC(=O)Nc1ccc(-n2nc(C(F)(F)F)cc2-c2ccc3c(ccc4ccccc43)c2)cc1 [OSU03012] (first compound 1 µM, partner dose 1 µM)	70.9%
NC1(c2ccc(-c3nc4ccn5c(=O)[nH]nc5c4cc3-c3ccccc3)cc2)CCC1 + O=S(=O)(c1ccccc1)N(CC(F)(F)F)c1ccc(C(O)(C(F)(F)F)C(F)(F)F)cc1 [T0901317] (first compound 0.4 µM, partner dose 1.4 µM)	326%
NC(=O)c1ccc(N(C(N)=O)c2c(F)cccc2F)nc1-c1ccc(F)cc1F + CC(C)(C)c1cnc(CSc2cnc(NC(=O)C3CCNCC3)s2)o1 [SNS-032] (first compound 0.4 µM, partner dose 0.01 µM)	121%
NC(=O)c1ccc(N(C(N)=O)c2c(F)cccc2F)nc1-c1ccc(F)cc1F + CO[C@@H]1[C@H](N(C)C(=O)c2ccccc2)C[C@H]2O[C@]1(C)n1c3ccccc3c3c4c(c5c6ccccc6n2c5c31)C(=O)NC4 [Midostaurin] (first compound 0.4 µM, partner dose 0.08 µM)	54.4%
Cn1cnc2c(F)c(Nc3ccc(Br)cc3Cl)c(C(=O)NOCCO)cc21 [selumetinib] + COc1cc2c(Oc3ccc4[nH]c(C)cc4c3F)ncnc2cc1OCCCN1CCCC1 [cediranib] (first compound 0.015 µM, partner dose 0.4 µM)	79%
C[C@]1(O)C[C@@H](c2nc(-c3ccc4ccc(-c5ccccc5)nc4c3)c3c(N)nccn32)C1 + c1cc(-c2cnn3cc(-c4ccc(OCCN5CCCCC5)cc4)cnc23)ccn1 [Dorsomorphin] (first compound 0.4 µM, partner dose 0.4 µM)	40%
CC1(C)CCC(c2ccc(Cl)cc2)=C(CN2CCN(c3ccc(C(=O)NS(=O)(=O)c4ccc(N[C@H](CCN5CCOCC5)CSc5ccccc5)c(S(=O)(=O)C(F)(F)F)c4)cc3)CC2)C1 + NCC(=O)Nc1ccc(-n2nc(C(F)(F)F)cc2-c2ccc3c(ccc4ccccc43)c2)cc1 [OSU03012] (first compound 0.4 µM, partner dose 1 µM)	386%
CN(c1ncccc1CNc1nc(Nc2ccc3c(c2)CC(=O)N3)ncc1C(F)(F)F)S(C)(=O)=O + O=C(O)c1ccc(-c2c[nH]c3ncc(-c4ccccc4)cc23)cc1C1CCCC1 [GSK650394] (first compound 0.08 µM, partner dose 0.16 µM)	166%
NC(=O)c1ccc(N(C(N)=O)c2c(F)cccc2F)nc1-c1ccc(F)cc1F + COc1ccc(-c2ccc3c(N4CCOCC4)nc(N4C[C@@H](C)O[C@@H](C)C4)nc3n2)cc1CO [KU0063794] (first compound 0.4 µM, partner dose 0.02 µM)	168%
NC1(c2ccc(-c3nc4ccn5c(=O)[nH]nc5c4cc3-c3ccccc3)cc2)CCC1 + CCCCCCCCCCCC1=C(O)C(=O)C=C(O)C1=O [Embelin] (first compound 0.4 µM, partner dose 1.2 µM)	85.6%
NC(=O)c1ccc(N(C(N)=O)c2c(F)cccc2F)nc1-c1ccc(F)cc1F + CC1(C)NC(=O)N(c2ccc([N+](=O)[O-])c(C(F)(F)F)c2)C1=O [nilutamide] (first compound 0.4 µM, partner dose 1 µM)	62.7%
COc1ccc(C2=N[C@@H](c3ccc(Cl)cc3)[C@@H](c3ccc(Cl)cc3)N2C(=O)N2CCNC(=O)C2)c(OC(C)C)c1 [Nutlin-3] + Cn1cncc1[C@@](N)(c1ccc(Cl)cc1)c1ccc2c(c1)c(-c1cccc(Cl)c1)cc(=O)n2C [tipifarnib] (first compound 0.1 µM, partner dose 0.01 µM)	162%
CN(c1ncccc1CNc1nc(Nc2ccc3c(c2)CC(=O)N3)ncc1C(F)(F)F)S(C)(=O)=O + Cc1cc([N+](=O)[O-])ccc1NS(=O)(=O)c1cc(Cl)ccc1Cl [FH535] (first compound 0.08 µM, partner dose 1 µM)	279%
CC(=O)O[C@@]12CO[C@@H]1C[C@H](O)[C@@]1(C)C(=O)[C@H](O)C3=C(C)[C@@H](OC(=O)[C@H](O)[C@@H](NC(=O)OC(C)(C)C)c4ccccc4)C[C@@](O)([C@@H](OC(=O)c4ccccc4)[C@H]21)C3(C)C [Docetaxel] + N#Cc1c(O)c2c(-c3ccc(-c4ccccc4O)cc3)csc2[nH]c1=O [A769662] (first compound 0.0001 µM, partner dose 2 µM)	692%
CC(=O)O[C@@]12CO[C@@H]1C[C@H](O)[C@@]1(C)C(=O)[C@H](O)C3=C(C)[C@@H](OC(=O)[C@H](O)[C@@H](NC(=O)OC(C)(C)C)c4ccccc4)C[C@@](O)([C@@H](OC(=O)c4ccccc4)[C@H]21)C3(C)C [Docetaxel] + COc1ccc2c(c1)CCC1C2CCC2(C)C(NCCCCCCN3C(=O)C=CC3=O)CCC12 [U73122] (first compound 0.0001 µM, partner dose 0.4 µM)	334%
CN(c1ncccc1CNc1nc(Nc2ccc3c(c2)CC(=O)N3)ncc1C(F)(F)F)S(C)(=O)=O + COc1cc(N2CCC(N3CCN(C)CC3)CC2)ccc1Nc1ncc(Cl)c(Nc2ccccc2S(=O)(=O)C(C)C)n1 [NVP-TAE684] (first compound 0.08 µM, partner dose 0.08 µM)	37.5%
NC(=O)c1ccc(N(C(N)=O)c2c(F)cccc2F)nc1-c1ccc(F)cc1F + O=C(O)c1ccc(-c2c[nH]c3ncc(-c4ccccc4)cc23)cc1C1CCCC1 [GSK650394] (first compound 0.4 µM, partner dose 0.16 µM)	66%
C[C@@H](N)c1ccc(C(=O)Nc2ccnc3[nH]ccc23)cc1 + Cc1cc(N2CCOCC2)cc2[nH]c(-c3c(NC[C@@H](O)c4cccc(Cl)c4)cc[nH]c3=O)nc12 [BMS536924] (first compound 0.4 µM, partner dose 0.2 µM)	62.6%
CC(=O)O[C@@]12CO[C@@H]1C[C@H](O)[C@@]1(C)C(=O)[C@H](O)C3=C(C)[C@@H](OC(=O)[C@H](O)[C@@H](NC(=O)OC(C)(C)C)c4ccccc4)C[C@@](O)([C@@H](OC(=O)c4ccccc4)[C@H]21)C3(C)C [Docetaxel] + COc1ccc(-c2ccc3c(N4CCOCC4)nc(N4C[C@@H](C)O[C@@H](C)C4)nc3n2)cc1CO [KU0063794] (first compound 0.0001 µM, partner dose 0.02 µM)	178%
CCCCCCCCc1ccc(CCC(N)(CO)CO)cc1 [fingolimod] + Cc1cc([N+](=O)[O-])ccc1NS(=O)(=O)c1cc(Cl)ccc1Cl [FH535] (first compound 2 µM, partner dose 1 µM)	82.7%
CCCCCCCCc1ccc(CCC(N)(CO)CO)cc1 [fingolimod] + Cn1cc(/C=C2\C(=O)Nc3cccnc32)c2ccccc21 [GW441756] (first compound 2 µM, partner dose 0.4 µM)	67.8%
Cn1cnc2c(F)c(Nc3ccc(Br)cc3Cl)c(C(=O)NOCCO)cc21 [selumetinib] + O=C(Nc1ccccc1)c1cc([N+](=O)[O-])ccc1Cl [GW9662] (first compound 0.015 µM, partner dose 2 µM)	123%

Two entries from above in a different format:
SMILES,cleaved PARP positive nuclei fraction
"C[C@]1(O)C[C@@H](c2nc(-c3ccc4ccc(-c5ccccc5)nc4c3)c3c(N)nccn32)C1 + c1cc(-c2cnn3cc(-c4ccc(OCCN5CCCCC5)cc4)cnc23)ccn1 [Dorsomorphin] (first compound 0.4 µM, partner dose 0.4 µM)",40%
"CC1(C)CCC(c2ccc(Cl)cc2)=C(CN2CCN(c3ccc(C(=O)NS(=O)(=O)c4ccc(N[C@H](CCN5CCOCC5)CSc5ccccc5)c(S(=O)(=O)C(F)(F)F)c4)cc3)CC2)C1 + NCC(=O)Nc1ccc(-n2nc(C(F)(F)F)cc2-c2ccc3c(ccc4ccccc43)c2)cc1 [OSU03012] (first compound 0.4 µM, partner dose 1 µM)",386%
